In ChEMBL document CHEMBL4316593 (Eur J Med Chem, 2019):
This continues a long series; more values of the same kind are listed elsewhere.

Columns and labels:
Assay type in all cases: cell-based
Conditions in all cases: U-87MG ATCC
[1] = Inhibition of RTK/PI3K/AKT/mTOR signaling in human U87 cells assessed as down regulation of GINS3 gene expression at cytotoxic IC50 measured after 48 hrs relative to control
[2] = Inhibition of RTK/PI3K/AKT/mTOR signaling in human U87 cells assessed as down regulation of ANKFN1 gene expression at cytotoxic IC50 measured after 48 hrs relative to control
[3] = Inhibition of RTK/PI3K/AKT/mTOR signaling in human U87 cells assessed as down regulation of ORC6 gene expression at cytotoxic IC50 measured after 48 hrs relative to control
[4] = Inhibition of RTK/PI3K/AKT/mTOR signaling in human U87 cells assessed as down regulation of OSTM1 gene expression at cytotoxic IC50 measured after 48 hrs relative to control
[5] = Inhibition of RTK/PI3K/AKT/mTOR signaling in human U87 cells assessed as down regulation of AHRR gene expression at cytotoxic IC50 measured after 48 hrs relative to control
[6] = Inhibition of RTK/PI3K/AKT/mTOR signaling in human U87 cells assessed as down regulation of ULK1 gene expression at cytotoxic IC50 measured after 48 hrs relative to control
[7] = Inhibition of RTK/PI3K/AKT/mTOR signaling in human U87 cells assessed as down regulation of HECTD2 gene expression at cytotoxic IC50 measured after 48 hrs relative to control
[8] = Inhibition of RTK/PI3K/AKT/mTOR signaling in human U87 cells assessed as down regulation of LRRFIP2 gene expression at cytotoxic IC50 measured after 48 hrs relative to control
[9] = Inhibition of RTK/PI3K/AKT/mTOR signaling in human U87 cells assessed as down regulation of STK17A gene expression at cytotoxic IC50 measured after 48 hrs relative to control
[10] = Inhibition of RTK/PI3K/AKT/mTOR signaling in human U87 cells assessed as down regulation of SDCBP gene expression at cytotoxic IC50 measured after 48 hrs relative to control
[11] = Inhibition of RTK/PI3K/AKT/mTOR signaling in human U87 cells assessed as down regulation of BRD2 gene expression at cytotoxic IC50 measured after 48 hrs relative to control
[12] = Inhibition of RTK/PI3K/AKT/mTOR signaling in human U87 cells assessed as down regulation of ASNA1 gene expression at cytotoxic IC50 measured after 48 hrs relative to control
[13] = Inhibition of RTK/PI3K/AKT/mTOR signaling in human U87 cells assessed as down regulation of PSMD7 gene expression at cytotoxic IC50 measured after 48 hrs relative to control
[14] = Inhibition of RTK/PI3K/AKT/mTOR signaling in human U87 cells assessed as down regulation of RRM1 gene expression at cytotoxic IC50 measured after 48 hrs relative to control
[15] = Inhibition of RTK/PI3K/AKT/mTOR signaling in human U87 cells assessed as down regulation of MMADHC gene expression at cytotoxic IC50 measured after 48 hrs relative to control
[16] = Inhibition of RTK/PI3K/AKT/mTOR signaling in human U87 cells assessed as up regulation of NYAP1 gene expression at cytotoxic IC50 measured after 48 hrs relative to control
[17] = Inhibition of RTK/PI3K/AKT/mTOR signaling in human U87 cells assessed as up regulation of GAL3ST4 gene expression at cytotoxic IC50 measured after 48 hrs relative to control
[18] = Inhibition of RTK/PI3K/AKT/mTOR signaling in human U87 cells assessed as up regulation of PLOD2 gene expression at cytotoxic IC50 measured after 48 hrs relative to control
[19] = Inhibition of RTK/PI3K/AKT/mTOR signaling in human U87 cells assessed as up regulation of ARHGAP29 gene expression at cytotoxic IC50 measured after 48 hrs relative to control
[20] = Inhibition of RTK/PI3K/AKT/mTOR signaling in human U87 cells assessed as up regulation of KCNG1 gene expression at cytotoxic IC50 measured after 48 hrs relative to control
[21] = Inhibition of RTK/PI3K/AKT/mTOR signaling in human U87 cells assessed as up regulation of CECR2, histone acetyl-lysine reader gene expression at cytotoxic IC50 measured after 48 hrs relative to control
[22] = Inhibition of RTK/PI3K/AKT/mTOR signaling in human U87 cells assessed as up regulation of F-box protein 17 gene expression at cytotoxic IC50 measured after 48 hrs relative to control
[23] = Inhibition of RTK/PI3K/AKT/mTOR signaling in human U87 cells assessed as up regulation of family with sequence similarity 35 member A gene expression at cytotoxic IC50 measured after 48 hrs relative to control
[24] = Inhibition of RTK/PI3K/AKT/mTOR signaling in human U87 cells assessed as up regulation of synaptogyrin 1 gene expression at cytotoxic IC50 measured after 48 hrs relative to control
[25] = Inhibition of RTK/PI3K/AKT/mTOR signaling in human U87 cells assessed as up regulation of IMP3, U3 small nucleolar ribonucleoprotein gene expression at cytotoxic IC50 measured after 48 hrs relative to control
[26] = Inhibition of RTK/PI3K/AKT/mTOR signaling in human U87 cells assessed as up regulation of basal cell adhesion molecule (Lutheran blood group) gene expression at cytotoxic IC50 measured after 48 hrs relative to control
[27] = Inhibition of RTK/PI3K/AKT/mTOR signaling in human U87 cells assessed as up regulation of chromosome 20 open reading frame 96 gene expression at cytotoxic IC50 measured after 48 hrs relative to control
[28] = Inhibition of RTK/PI3K/AKT/mTOR signaling in human U87 cells assessed as up regulation of signal induced proliferation associated 1 like 3 gene expression at cytotoxic IC50 measured after 48 hrs relative to control
[29] = Inhibition of RTK/PI3K/AKT/mTOR signaling in human U87 cells assessed as up regulation of neuronal calcium sensor 1 gene expression at cytotoxic IC50 measured after 48 hrs relative to control
[30] = Inhibition of RTK/PI3K/AKT/mTOR signaling in human U87 cells assessed as up regulation of STK11 gene expression at cytotoxic IC50 measured after 48 hrs relative to control
[31] = Inhibition of RTK/PI3K/AKT/mTOR signaling in human U87 cells assessed as up regulation of SUMF2 gene expression at cytotoxic IC50 measured after 48 hrs relative to control
[32] = Inhibition of RTK/PI3K/AKT/mTOR signaling in human U87 cells assessed as up regulation of ANXA11 gene expression at cytotoxic IC50 measured after 48 hrs relative to control

## CC(=O)C(=NNc1ccccc1C#N)C(C)=O
[1]
  log2FC: -1.63
[2]
  log2FC: -1.45
[3]
  log2FC: -1.44
[4]
  log2FC: -1.32
[5]
  log2FC: -1.16
[6]
  log2FC: -1.15
[7]
  log2FC: -1.01
[8]
  log2FC: -0.871
[9]
  log2FC: -0.832
[10]
  log2FC: -0.772
[11]
  log2FC: -0.697
[12]
  log2FC: -0.692
[13]
  log2FC: -0.605
[14]
  log2FC: -0.564
[15]
  log2FC: -0.395
[16]
  log2FC: 2.31
[17]
  log2FC: 2.08
[18]
  log2FC: 1.89
[19]
  log2FC: 1.62
[20]
  log2FC: 1.59
[21]
  log2FC: 1.43
[22]
  log2FC: 1.25
[23]
  log2FC: 1.15
[24]
  log2FC: 1.14
[25]
  log2FC: 1.04
[26]
  log2FC: 1.03
[27]
  log2FC: 0.957
[28]
  log2FC: 0.804
[29]
  log2FC: 0.689
[30]
  log2FC: 0.631
[31]
  log2FC: 0.47
[32]
  log2FC: 0.386
